Source: paper PMC11810119
Results are given in words; binding and its absence hold for the method and conditions named. Binding seen in cells or lysates may run through a third protein. A yes stands for co-enrichment or nearness to the bait. Other partners may have been found.

The chains behind the UniProt entries cited, without tags or fusion partners. Where a name states a change or a piece, a line headed by the entry shows the natural chain unless it says otherwise. A line that says so, or that is headed by a name, gives the form on record, which may keep a tag or linker.
UniProt O35889: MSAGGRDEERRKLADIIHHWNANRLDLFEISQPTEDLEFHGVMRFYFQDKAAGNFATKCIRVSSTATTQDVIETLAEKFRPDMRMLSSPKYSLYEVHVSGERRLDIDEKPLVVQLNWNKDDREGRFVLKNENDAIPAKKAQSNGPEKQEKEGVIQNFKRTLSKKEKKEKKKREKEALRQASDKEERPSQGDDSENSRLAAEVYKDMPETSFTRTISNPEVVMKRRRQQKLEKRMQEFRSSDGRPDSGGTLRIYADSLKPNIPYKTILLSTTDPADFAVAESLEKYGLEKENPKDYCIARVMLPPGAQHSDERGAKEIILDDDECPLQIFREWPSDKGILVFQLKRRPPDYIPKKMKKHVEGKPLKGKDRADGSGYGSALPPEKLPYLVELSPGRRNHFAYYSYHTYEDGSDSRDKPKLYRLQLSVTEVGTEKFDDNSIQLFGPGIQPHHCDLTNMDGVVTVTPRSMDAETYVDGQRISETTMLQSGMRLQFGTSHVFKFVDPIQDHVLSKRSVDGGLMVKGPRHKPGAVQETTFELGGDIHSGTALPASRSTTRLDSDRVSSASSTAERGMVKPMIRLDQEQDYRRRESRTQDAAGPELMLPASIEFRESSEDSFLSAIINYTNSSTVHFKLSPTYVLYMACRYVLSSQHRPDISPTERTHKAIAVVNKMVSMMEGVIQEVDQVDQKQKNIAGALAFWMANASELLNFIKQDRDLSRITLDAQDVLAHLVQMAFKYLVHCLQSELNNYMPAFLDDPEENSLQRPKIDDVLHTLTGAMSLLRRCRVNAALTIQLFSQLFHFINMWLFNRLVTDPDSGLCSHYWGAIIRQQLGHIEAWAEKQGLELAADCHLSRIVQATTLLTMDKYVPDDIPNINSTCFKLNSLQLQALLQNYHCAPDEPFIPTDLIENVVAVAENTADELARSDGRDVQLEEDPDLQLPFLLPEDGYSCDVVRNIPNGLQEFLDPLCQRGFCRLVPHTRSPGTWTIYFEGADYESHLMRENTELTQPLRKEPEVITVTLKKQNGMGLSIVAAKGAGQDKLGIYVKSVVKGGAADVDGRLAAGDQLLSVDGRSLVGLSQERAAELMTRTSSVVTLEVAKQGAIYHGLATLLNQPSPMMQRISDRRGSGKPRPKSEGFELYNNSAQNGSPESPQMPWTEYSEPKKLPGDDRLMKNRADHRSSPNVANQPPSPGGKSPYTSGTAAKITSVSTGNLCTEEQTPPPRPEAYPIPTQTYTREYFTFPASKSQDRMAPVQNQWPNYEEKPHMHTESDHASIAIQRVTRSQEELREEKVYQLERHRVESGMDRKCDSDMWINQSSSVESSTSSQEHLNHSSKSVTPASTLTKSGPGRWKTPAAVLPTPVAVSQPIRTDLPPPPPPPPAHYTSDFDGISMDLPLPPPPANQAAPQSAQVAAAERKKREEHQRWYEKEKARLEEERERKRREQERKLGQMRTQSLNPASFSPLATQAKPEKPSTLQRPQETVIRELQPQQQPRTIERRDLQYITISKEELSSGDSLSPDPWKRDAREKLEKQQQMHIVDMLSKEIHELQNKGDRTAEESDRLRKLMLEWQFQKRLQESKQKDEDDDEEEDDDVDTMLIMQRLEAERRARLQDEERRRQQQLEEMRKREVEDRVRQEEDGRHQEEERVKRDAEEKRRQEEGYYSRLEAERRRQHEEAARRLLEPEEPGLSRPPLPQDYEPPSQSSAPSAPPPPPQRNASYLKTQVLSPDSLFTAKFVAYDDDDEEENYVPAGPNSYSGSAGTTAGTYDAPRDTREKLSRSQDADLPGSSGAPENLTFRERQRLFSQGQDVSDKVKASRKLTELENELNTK
UniProt A0A8P0N4K0: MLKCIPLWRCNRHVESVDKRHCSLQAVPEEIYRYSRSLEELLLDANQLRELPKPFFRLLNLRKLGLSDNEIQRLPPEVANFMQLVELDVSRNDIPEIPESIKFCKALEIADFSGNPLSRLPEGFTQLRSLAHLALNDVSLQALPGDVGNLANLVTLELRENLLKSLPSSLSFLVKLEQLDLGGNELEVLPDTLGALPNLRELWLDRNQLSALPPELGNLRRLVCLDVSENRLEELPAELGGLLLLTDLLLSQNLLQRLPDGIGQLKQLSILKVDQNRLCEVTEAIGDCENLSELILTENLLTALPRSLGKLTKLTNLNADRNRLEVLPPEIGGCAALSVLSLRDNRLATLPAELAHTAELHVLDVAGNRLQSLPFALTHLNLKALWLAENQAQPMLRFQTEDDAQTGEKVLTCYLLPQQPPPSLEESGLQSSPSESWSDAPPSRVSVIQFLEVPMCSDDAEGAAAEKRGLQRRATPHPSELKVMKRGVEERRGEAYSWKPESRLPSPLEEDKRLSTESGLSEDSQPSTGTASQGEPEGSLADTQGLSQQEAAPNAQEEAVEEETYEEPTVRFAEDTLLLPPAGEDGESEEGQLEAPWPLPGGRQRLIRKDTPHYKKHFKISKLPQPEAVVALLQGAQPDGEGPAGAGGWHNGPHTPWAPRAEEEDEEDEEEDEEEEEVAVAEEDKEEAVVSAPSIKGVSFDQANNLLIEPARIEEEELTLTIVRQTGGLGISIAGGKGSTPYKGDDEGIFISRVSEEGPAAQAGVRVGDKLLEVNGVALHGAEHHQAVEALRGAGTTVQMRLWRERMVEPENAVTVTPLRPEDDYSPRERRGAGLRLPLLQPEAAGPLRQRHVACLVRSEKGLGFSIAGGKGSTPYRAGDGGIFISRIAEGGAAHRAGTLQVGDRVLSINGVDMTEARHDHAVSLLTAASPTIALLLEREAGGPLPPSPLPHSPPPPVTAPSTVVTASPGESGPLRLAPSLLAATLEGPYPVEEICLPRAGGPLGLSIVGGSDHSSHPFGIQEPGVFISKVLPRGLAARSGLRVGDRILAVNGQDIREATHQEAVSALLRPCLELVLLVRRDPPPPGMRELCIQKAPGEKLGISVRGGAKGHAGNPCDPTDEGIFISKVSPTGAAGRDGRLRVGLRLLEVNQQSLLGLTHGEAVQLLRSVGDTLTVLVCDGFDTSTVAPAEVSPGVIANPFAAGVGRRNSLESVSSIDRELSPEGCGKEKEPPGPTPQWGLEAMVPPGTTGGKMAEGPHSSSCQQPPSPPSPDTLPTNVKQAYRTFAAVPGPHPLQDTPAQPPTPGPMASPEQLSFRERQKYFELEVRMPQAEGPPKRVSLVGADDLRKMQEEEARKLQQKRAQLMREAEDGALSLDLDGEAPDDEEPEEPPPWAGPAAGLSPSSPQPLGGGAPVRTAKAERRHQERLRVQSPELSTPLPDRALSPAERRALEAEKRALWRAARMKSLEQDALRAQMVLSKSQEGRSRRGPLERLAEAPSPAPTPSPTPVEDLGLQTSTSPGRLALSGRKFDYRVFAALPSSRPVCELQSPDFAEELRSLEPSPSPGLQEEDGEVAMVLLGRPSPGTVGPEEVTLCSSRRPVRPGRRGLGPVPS
UniProt O97758: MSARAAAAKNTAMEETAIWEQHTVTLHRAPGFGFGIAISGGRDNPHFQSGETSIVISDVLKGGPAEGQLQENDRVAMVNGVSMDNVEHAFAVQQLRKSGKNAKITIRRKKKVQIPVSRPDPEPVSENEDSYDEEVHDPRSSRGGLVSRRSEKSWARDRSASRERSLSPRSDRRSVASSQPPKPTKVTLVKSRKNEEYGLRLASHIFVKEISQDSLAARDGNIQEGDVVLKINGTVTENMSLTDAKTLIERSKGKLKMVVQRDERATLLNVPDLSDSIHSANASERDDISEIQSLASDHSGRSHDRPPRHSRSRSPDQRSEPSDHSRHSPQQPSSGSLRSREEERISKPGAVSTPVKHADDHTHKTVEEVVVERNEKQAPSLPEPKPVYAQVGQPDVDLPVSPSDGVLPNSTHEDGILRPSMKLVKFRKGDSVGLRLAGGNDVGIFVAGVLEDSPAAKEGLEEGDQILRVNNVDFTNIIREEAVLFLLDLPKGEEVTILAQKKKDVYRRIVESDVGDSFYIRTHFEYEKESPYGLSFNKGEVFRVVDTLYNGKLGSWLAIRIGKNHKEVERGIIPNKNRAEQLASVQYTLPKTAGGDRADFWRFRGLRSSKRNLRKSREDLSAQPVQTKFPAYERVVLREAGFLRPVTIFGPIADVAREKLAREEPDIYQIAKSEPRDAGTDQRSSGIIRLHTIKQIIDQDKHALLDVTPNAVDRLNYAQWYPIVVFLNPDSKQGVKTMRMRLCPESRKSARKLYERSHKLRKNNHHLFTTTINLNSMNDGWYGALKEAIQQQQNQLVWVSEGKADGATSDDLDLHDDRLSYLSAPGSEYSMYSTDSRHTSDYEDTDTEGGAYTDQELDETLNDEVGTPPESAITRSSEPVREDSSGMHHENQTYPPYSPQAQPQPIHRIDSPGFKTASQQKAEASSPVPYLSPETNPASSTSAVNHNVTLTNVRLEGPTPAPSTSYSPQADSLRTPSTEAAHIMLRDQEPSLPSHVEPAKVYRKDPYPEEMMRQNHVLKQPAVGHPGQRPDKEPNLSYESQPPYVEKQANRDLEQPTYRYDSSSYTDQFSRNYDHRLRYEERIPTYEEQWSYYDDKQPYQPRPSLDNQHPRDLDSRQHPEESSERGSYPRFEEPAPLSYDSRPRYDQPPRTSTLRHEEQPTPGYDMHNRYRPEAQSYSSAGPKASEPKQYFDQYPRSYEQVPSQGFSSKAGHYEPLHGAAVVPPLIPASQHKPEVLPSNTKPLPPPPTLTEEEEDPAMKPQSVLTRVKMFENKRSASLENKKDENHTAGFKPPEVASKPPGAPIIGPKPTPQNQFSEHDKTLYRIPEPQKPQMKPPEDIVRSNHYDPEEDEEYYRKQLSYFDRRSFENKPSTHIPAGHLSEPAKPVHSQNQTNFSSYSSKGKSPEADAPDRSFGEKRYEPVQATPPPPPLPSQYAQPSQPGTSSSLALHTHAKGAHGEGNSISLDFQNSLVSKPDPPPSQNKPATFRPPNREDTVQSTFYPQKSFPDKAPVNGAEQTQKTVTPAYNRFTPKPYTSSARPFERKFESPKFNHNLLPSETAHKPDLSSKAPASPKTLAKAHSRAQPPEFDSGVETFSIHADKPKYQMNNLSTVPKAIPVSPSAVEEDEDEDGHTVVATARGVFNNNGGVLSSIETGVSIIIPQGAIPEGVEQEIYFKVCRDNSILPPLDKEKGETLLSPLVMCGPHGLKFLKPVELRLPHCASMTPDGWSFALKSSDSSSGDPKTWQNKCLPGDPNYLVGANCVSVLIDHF
UniProt Q8MJ47: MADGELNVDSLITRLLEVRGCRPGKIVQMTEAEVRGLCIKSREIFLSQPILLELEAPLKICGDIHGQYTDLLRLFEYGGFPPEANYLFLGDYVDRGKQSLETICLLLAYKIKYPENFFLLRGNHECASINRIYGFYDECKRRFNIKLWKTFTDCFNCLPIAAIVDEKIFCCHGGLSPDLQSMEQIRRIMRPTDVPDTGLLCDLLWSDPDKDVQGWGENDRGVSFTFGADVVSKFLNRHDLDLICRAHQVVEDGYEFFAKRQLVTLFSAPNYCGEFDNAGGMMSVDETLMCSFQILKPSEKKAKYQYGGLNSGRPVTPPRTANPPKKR
UniProt A0A8I3M9P4: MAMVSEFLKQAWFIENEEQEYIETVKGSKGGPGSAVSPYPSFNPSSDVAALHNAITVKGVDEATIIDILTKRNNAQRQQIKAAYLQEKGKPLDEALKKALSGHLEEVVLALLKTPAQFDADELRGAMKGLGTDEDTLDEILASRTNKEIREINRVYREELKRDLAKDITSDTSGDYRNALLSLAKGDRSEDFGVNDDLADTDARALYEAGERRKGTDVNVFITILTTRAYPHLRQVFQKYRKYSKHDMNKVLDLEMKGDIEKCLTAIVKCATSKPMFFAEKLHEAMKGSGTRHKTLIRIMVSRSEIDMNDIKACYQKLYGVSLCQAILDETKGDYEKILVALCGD
ISG15 ubiquitin like modifier (A0A8I3P342, form named): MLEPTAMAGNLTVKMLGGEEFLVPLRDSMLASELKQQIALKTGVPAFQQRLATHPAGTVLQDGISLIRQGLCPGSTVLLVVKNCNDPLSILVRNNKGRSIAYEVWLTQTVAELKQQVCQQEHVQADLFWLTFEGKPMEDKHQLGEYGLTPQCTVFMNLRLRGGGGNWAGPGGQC
UniProt A0A8I3PTS8: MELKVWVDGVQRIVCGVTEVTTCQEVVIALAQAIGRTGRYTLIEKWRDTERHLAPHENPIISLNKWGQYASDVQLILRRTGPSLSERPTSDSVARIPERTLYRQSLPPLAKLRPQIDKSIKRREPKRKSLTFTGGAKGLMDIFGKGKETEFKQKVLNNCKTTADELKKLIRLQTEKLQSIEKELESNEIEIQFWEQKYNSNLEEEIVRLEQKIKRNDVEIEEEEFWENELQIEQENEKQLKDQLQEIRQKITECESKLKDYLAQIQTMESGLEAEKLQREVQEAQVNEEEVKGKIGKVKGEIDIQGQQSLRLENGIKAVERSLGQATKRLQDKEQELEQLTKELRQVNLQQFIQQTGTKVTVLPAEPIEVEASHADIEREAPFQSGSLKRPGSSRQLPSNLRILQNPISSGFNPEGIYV

B1: Tight junction protein 3=ZO-3 (protein, UniProt O62683 1-898)
chain: MEELTIWEQHTATLCRDPRRGFGIAISGGRDRASGSVVVSDVVPGGPADGRLQTGDHVVMVNGVSMESVTSTFAIQILKTCTKLANITVKRPRKIQLPATKAGTSGRGRQGLEEEADCGQGYDGDTSSGSGRSWDKRSRRARTGRRNQAGSRGRRSPGGNSEANGLALVSGFKRLPRQDVHMRPVKSVLVRRTESEEFGVTLGSQIFIKHITDSGLAARNRGLQEGDLILQINGVSSENLSLSDTRRLIEKSEGKLTLLVLRDRGQFLVNIPPAVSDSDSDSSFLDDISALGSELSQAVPSHVPPPPPHAQRSLDSDGTDSPRDSPPLRRENSLDSRTISEPDAPRHSSYDIYRVPSSQSAEDRGYSPDSRVVRFHKGTTIGLRLAGGNDVGIFVSGVQEGSPADGQGIQEGDQILQVNDVPFRNLTREEAVQFLVALPPGEEVELVTQRNEDIFRKMVQSRVGDSFYIRTHFELEASPPSGLGFTRGDVFHVLDTLCPGPGPSGARGTHWLAVRMGRDLREQERGIIPNQSRAEQLASLESAQRAVGAGPGASVGSSARAEFWRLRGLRRGAKKSTQRSREDLSALTRQGHYPPYERVVLREASFKRPVVILGPVADIAMQKLTAEMPDQFGIADSVLRTDSPSKIIKLDTVRVIAEKNKHALLDVTPSAVERLNYVQYYPIVVFCAPESRAALKALRQWLAPASRRSARRLYAQAQKLRKHSEHLFTATIPLRGTSDTWYQELKAVVREQQTRPIWTAEDQLDNSSEDNLELPHRGLADSSADLSCDSRVNSDYETDGEGYTDGEGYTDVDEGPPAPALARSSEPVLEEEPRSPRDHGRASGARGAQVDRHPYHSQGRQDSMRTYGQEALKKKFTRARDVESSDEDGYDWGPATDL
B2: Cingulin (protein, UniProt A7YH32 1-1196)
chain: MEQASTMAEPRGPVDHGVQIRFITEPVGNAEMDTLRRGGRRPAKDARANTYGVAVRVQGIAGQPFVVLNSGEQGSDSFGVQIKGTNNRGPPGALSSDSELPESTYSHAKEFPARSQGSMSDEELGAHWNGRLLRSQSQASLKGPAPVSPSTRSTSLLQLAPEVASPGSTIDTAPLSSVDSLINKFDSRQGGQARGRTGRRMRTLPPEQRKRSQSLDNRLPRDTLDEREHQFPTHWTPSTKRDSHMGNSKQSSQNQGPLGGFSCSRQTQDWVLQSFEEPRGRAWDPGMLQFKSTPDLLRDQQETAPPGSVDHVKATIYSILREGSSETETSVRRKVNLVLEQMQPLVMTSGSAKGLTGQSELSQKVEELQQKLDEEVKKRPKLESSRLGLERQLQEKAEECSQLQELLERRKGEAQQSTKELQNMKLLVDQSERVRCGLEAQVKELQDKLKQAQEPEPAKEALMKDLLEARELLEEVLEGKQRMEEHLRLRERELTALKGALKEEVASRDQEVEHVRQQCQRDAEQLRRSIQDATQDHAALEVERQKMSTLVRELQKELEETSEETGHWQSMFQKNKDELRATKQELLQLRMEKEEIEEELGEKIEVLQRELGQARAGAADTRQMEELKKELCQTQKELKELKEEQQNQEVAGRHRERELEKQLKVEADRGQGLEQQNLQLQKTLQQLRQDCEEASKAQVAAEAEVAVLGQRRAAVEVTLRETQEENDEFRRRILGLEQQLKEARGLAEGGEVAEARLRDKVQRLEAEKQRLEEALNAAQEEEGSLAAAKRALEARLEEAQRGLARLGQEQLALNRALEEEGKQREALRRSKAELEEQKRLLDKTVCQLNKELEQIGNDSKQALQQLQAQLEDYKEKARREVADAQRQAKEWATEAEKNSGGLSRLQDETQRLRQALQASQADRDTARLDKELLAQRLQGLEQEAENKKRSQDDRARQLKGLEEKVSRLEAELDEERSTVELLTERVTRGRDQVDQLRSELMQERSARQDLECDKISLERQNKDLKSRLASSEGFQKPSASLSQLESQNQELQERLQAEEREKTVLQSTNRKLERRVKELSIQIDDERQHVNDQKDQLSLRVKALKRQVDEAEEEIERLDGLRKKAQRELEEQHEVNEQLQARIKTLEKDSWRKASRSAAESAQREGLSSDEEFDSVYDPSSIASLLTESNLQTSSC
B3: Uveal autoantigen with coiled-coil domains and ankyrin repeats (protein, UniProt Q9GL21 1-1415)
chain: MPSSLLLATRNQILSMMNCWFSCAPKNRHAADWNKYDDRLMKAAERGDVEKVSSILAKKGINPGKLDVEGRSAFHVVASKGNLECLNAILIHGVDITTSDTAGRNALHLAAKYGHALCLQKLLQYNCPTEHADLQGRTALHDAAMADCPSSIQLLCDHGASVNAKDVDGRTPLVLATQMCRPAICQLLIDRGAEINSRDKQNRTALMLGCEYGCKDAVEVLLKNGADVSLLDALGHDSSYYARIGDNLDILTLLKTASENTNKGRELWKKGPSLQQRNLPYMLDEVNVKSSQREHRNIQELEIENEDLKDRLRKIQQEQRILLDKVNGLQLQLNEEVMVADDLESEKEKLKSLLVAKEKQHEESLRTIESLKNRFKYFESDHLGSGSHFSNRKEDMLLKQGQMYMTCTSPGVPAHMQSRSMLRPLELSLPNQTSYSENDLLKKELEAMRTFCESAKQDRLKLQNELAHKVAECKALGLECERIKEDSDEQIKQLEDALKDVQKRMYESEGKVKQMQTHFLALKEHLTSEAAIGNHRLMEELKDQLKDMKAKYEGASAEVGKLRNQIKQNELLVEQFRRDEGKLVEENKRLQKELSMCETERDKKGRRVAEVEGQVKELLAKLTLSVPTEKFESMKSLLSSEVNEKVKKIGETEREYEKSLTEIRQLRRELENCKAKLAQHVKPEEHEQLKSRLEQRAGELAKKVTELTSKNQVLQRDVEKVYLDNKLLNQQVHNLTSEIKSHYVPLQVSEEMKKSHDVTVEELKKQLLDVTQKCADKQLEMEKLLLENDSLSKNVSRLETVFVPPEKHQKEVTALKSSVADLKRQLLELNKKCGEDREKINALVSENTSLKKTLSNQYVPAKTHEEVKTALSGTLDKTNRELLDAKKKWEDLNQEFVKTKDENEILKRNLENTQSQIKAEYISLREHEEKMSAINQNMKSVQDNSAEILANYRKGQEEIVTLHAEIEAQKKELDTIQECIKLKYAPIISFEECERKFKATEKELKEQLSEQMQKYHVREEEAKKYKQENDKLKKEIFTLQKDLKDKNVLIENSHDMERALNRKAEELNKQLKDLLQKYSEIKTEKEKLVDDNARQTSELLAAQTLLQKQHVPLEQVETLKKSLNSTIEHLKEELKNKQKCYEKEQQTVAKLHQMLENQKNSSVPLGEHLRVKEAFEKEVGMIKASLREKEEESQNKTEEVSKLQSEVQDTKQALQKLETREVVDLSKYKATKSDLETQISNLNEKLANLNRKYEEACEEVLRAQRKQLSAKDEKELLHFSIEQEIKDQQERCDKSLTTITELQKRIQESAKQIEAKDNKITELLNDVERLKQALSGLSQLTSPSGSPSKRQSQLIDTLQHQVKSLQQQLADTDRQHQEVIAIYRTHLLSAAQGHMDEDVQAALLQIIQMRQGLVC

Key:
Afadin-BL (rat) [1] = biological target: Afadin-BL (rat) (UniProt O35889); test: proximity labelling; BioID: BirA*-Afadin fusion expressed in MDCK cells (duplicates; one replicate each also in ZO-1/ZO-2 knock-down MDCK cells), 50 µM biotin for 24 h, lysates on streptavidin Dynabeads, trypsin digestion, label-free LC-MS/MS; hits SAINT >=0.9 versus BirA* alone
BL-Afadin (rat) [2] = biological target: BL-Afadin (rat) (UniProt O35889); test: as above
BL-Afadin (rat) [3] = biological target: BL-Afadin (rat) (UniProt O35889); test: proximity labelling; BirA*-Afadin fusion in stable MDCK lines, biotin over a time course of hours, biotinylated proteins affinity-purified with streptavidin, immunoblot for junctional and cytoskeletal proteins
Afadin-BL (rat) [4] = biological target: Afadin-BL (rat) (UniProt O35889); test: as above

Row | Molecule | binding (Afadin-BL (rat) [1]) | binding (BL-Afadin (rat) [2]) | binding (BL-Afadin (rat) [3]) | binding (Afadin-BL (rat) [4])
1 | Niban apoptosis regulator 2=FAM129B (from UniProt A0A8I3NCX0 1-746) | binds | – | – | –
2 | Leucine zipper putative tumor suppressor 2 (Protein LAPSER1) (from UniProt A0A8I3NZ94 1-670) | binds | binds | – | –
3 | Scribble planar cell polarity protein (from UniProt A0A8P0N4K0 1-1614) | binds | binds | – | –
4 | Erythrocyte membrane protein band 4.1 (from UniProt Q6Q7P4 1-810) | binds | binds | – | –
5 | Talin 1 (from UniProt A0A8I3N6K0 1-2558) | – | binds | – | –
6 | Tumor protein p53 binding protein 2=Aspp2 (from UniProt A0A8I3NPK4) | binds | binds | – | –
7 | Tight junction protein 1 =ZO-1 (from UniProt O97758 1-1769) | binds | binds | binds | binds
8 | Palmitoyltransferase ZDHHC5 (from UniProt Q2THW9 1-715) | binds | – | – | –
9 | Leucine zipper protein 1 (from UniProt A0A8I3P0F9 1-1074) | binds | binds | – | –
10 | Tripartite motif containing 25 a ubiquitin E3 ligase (from UniProt A0A8I3S0A8 1-631) | binds | binds | – | –
11 | Serine/threonine-protein phosphatase (EC 3.1.3.16) (from UniProt Q8MJ47 1-327) | binds | binds | – | –
12 | DnaJ heat shock protein family (Hsp40) member B1 (from UniProt A0A8I3PMR7 1-340) | binds | – | – | –
13 | Annexin (from UniProt A0A8I3M9P4 1-345) | binds | – | – | –
14 | Vasodilator stimulated phosphoprotein (from UniProt P50551 1-384) | binds | binds | – | –
15 | Tankyrase 1 binding protein 1 (from UniProt A0A8I3S5F5 1-1737) | – | binds | – | –
16 | Exocyst complex component 3 (from UniProt A0A8I3QBX3 1-745) | binds | – | – | –
17 | ISG15 ubiquitin like modifier (from UniProt A0A8I3P342 1-174) | binds | binds | – | –
18 | Ribosome binding protein 1 (from UniProt Q28298 1-1534) | binds | – | – | –
19 | Ras association domain family member 8 (from UniProt A0A8I3PTS8 1-419) | binds | binds | – | –
20 | Cyclin dependent kinase 6 (from UniProt A0A8I3RZY6 1-326) | binds | – | – | –
21 | LIM and SH3 domain protein 1 (from UniProt A0A8I3RXT2 1-318) | binds | binds | – | –
22 | CD2 associated protein (from UniProt A0A8I3S099 1-639) | binds | binds | – | –
23 | Discs large homolog 1 (from UniProt A0A8C0TYJ0 1-927) | binds | binds | – | –
24 | LIM domain and actin binding 1=EPLIN (from UniProt A0A8I3PA03 1-762) | – | binds | – | –
25 | B1 | binds | binds | – | –
26 | B2 | binds | binds | – | –
27 | B3 | binds | – | – | –
